Protein sequences, listed by entry. Tags and fused reporters are not part of them.
UniProt Q9UBT2, whole entry: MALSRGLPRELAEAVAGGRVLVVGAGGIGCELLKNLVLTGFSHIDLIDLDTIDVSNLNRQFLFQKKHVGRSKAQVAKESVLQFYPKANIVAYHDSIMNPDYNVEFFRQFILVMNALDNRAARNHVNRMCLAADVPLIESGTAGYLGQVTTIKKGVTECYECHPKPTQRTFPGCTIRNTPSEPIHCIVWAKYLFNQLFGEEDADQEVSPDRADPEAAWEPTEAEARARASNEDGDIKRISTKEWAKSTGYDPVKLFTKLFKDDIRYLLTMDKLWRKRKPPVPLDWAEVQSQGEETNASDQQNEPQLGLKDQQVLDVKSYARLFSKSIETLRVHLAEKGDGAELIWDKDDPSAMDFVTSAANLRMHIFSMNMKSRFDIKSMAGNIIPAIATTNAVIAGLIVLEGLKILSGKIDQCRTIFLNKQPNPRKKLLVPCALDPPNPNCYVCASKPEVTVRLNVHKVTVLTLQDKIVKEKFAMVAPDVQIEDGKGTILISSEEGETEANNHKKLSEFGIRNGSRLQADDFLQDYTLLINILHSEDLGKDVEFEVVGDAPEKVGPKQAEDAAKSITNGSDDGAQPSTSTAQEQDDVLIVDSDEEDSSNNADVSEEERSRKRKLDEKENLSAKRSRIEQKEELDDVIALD
UniProt Q9UBE0, whole entry partner: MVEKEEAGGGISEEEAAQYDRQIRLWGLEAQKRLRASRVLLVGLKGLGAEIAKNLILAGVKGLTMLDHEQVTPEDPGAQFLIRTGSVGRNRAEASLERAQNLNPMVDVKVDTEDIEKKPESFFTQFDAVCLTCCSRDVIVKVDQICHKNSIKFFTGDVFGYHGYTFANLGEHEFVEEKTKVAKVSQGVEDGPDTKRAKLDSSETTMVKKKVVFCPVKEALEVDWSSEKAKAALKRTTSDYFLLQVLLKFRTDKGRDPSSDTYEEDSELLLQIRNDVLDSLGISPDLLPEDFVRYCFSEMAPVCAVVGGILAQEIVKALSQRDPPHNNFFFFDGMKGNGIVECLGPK

In patent US10780090B2, “Heteroaryl compounds useful as inhibitors of SUMO activating enzyme” (Millennium Pharmaceuticals, Inc., priority 2014, dated 2020):

molecular target: recombinant human SAE enzyme (Homo sapiens (Human), UniProt Q9UBT2); assay: SAE HTRF enzyme assay; format: biochemical; conditions: Concentration 0.111 μM

| SMILES | Percent Inhibition |
| --- | --- |
| Cc1sc(C(=O)c2cncnc2N[C@@H]2C[C@H](COS(N)(=O)=O)[C@@H](O)[C@H]2O)cc1C1OCCc2ccccc21 (single isomer, unassigned) | 101% |
| COCc1sc(C(=O)c2cncnc2N[C@@H]2C[C@H](COS(N)(=O)=O)[C@@H](O)C2)cc1C(O)c1cccc(Cl)c1 (single isomer, unassigned) | 98% |
| NS(=O)(=O)OC[C@H]1C[C@@H](Nc2ncncc2C(=O)c2cc(C3(c4cccc(Cl)c4)CCCN3)cs2)[C@H](O)[C@@H]1O (stereo partly shown) | 98% |
| NS(=O)(=O)OC[C@H]1C[C@@H](Nc2ncncc2C(=O)c2cc(C(O)c3cccc(Cl)n3)c(Cl)s2)C[C@@H]1O (single isomer, unassigned) | 100% |
| NC(c1cccc(Br)n1)c1cc(C(=O)c2cncnc2N[C@@H]2C[C@H](COS(N)(=O)=O)[C@@H](O)[C@H]2O)sc1Cl (single isomer, unassigned) | 99% |

same assay, conditions: SAE inhibition at compound concentration 0.111 μM

| SMILES | Percent Inhibition |
| --- | --- |
| CN1Cc2ccccc2C1c1cc(C(=O)c2cncnc2NC2CC(O)C(COS(N)(=O)=O)C2)sc1Cl (stereo not shown) | 97% |
| NS(=O)(=O)OC[C@H]1C[C@@H](Nc2ncncc2C(=O)c2cc(C3OCCc4ccc(Cl)cc43)c(CO)s2)C[C@@H]1O (stereo partly shown) | 100% |
| NS(=O)(=O)OC[C@H]1C[C@@H](Nc2ncncc2C(=O)c2cc(C3CCCc4ccc(Cl)cc43)cs2)C[C@@H]1O (single isomer, unassigned) | 38% |
| Cc1sc(C(=O)c2cncnc2N[C@@H]2C[C@H](COS(N)(=O)=O)[C@@H](O)C2)nc1C(O)c1cccc(Cl)c1 (single isomer, unassigned) | 96% |
| Cc1nc2c(s1)C(c1cc(C(=O)c3cncnc3N[C@@H]3C[C@H](COS(N)(=O)=O)[C@@H](O)C3)sc1C)OCC2 (single isomer, unassigned) | 96% |

same assay, conditions: SAE inhibition; class symbols, legend in nM

| SMILES | IC50 |
| --- | --- |
| NS(=O)(=O)OC[C@H]1C[C@@H](Nc2ncncc2C(=O)c2cc(C3OCCc4ccc(Cl)cc43)c(CO)s2)C[C@@H]1O (stereo partly shown) | < 10 nM |
| NS(=O)(=O)OC[C@H]1C[C@@H](Nc2ncncc2C(=O)c2cc(C3CCCc4ccc(Cl)cc43)cs2)C[C@@H]1O (single isomer, unassigned) | 100 to 1000 nM |
| Cc1sc(C(=O)c2cncnc2N[C@@H]2C[C@H](COS(N)(=O)=O)[C@@H](O)C2)nc1C(O)c1cccc(Cl)c1 (single isomer, unassigned) | < 10 nM |
| Cc1nc2c(s1)C(c1cc(C(=O)c3cncnc3N[C@@H]3C[C@H](COS(N)(=O)=O)[C@@H](O)C3)sc1C)OCC2 (single isomer, unassigned) | < 10 nM |

same assay, conditions: class symbols A/B/C

| SMILES | pIC50 |
| --- | --- |
| Cc1sc(C(=O)c2cncnc2N[C@@H]2C[C@H](COS(N)(=O)=O)[C@@H](O)[C@H]2O)cc1C1OCCc2ccccc21 (single isomer, unassigned) | > 8.00 |
| COCc1sc(C(=O)c2cncnc2N[C@@H]2C[C@H](COS(N)(=O)=O)[C@@H](O)C2)cc1C(O)c1cccc(Cl)c1 (single isomer, unassigned) | > 8.00 |
| NS(=O)(=O)OC[C@H]1C[C@@H](Nc2ncncc2C(=O)c2cc(C3(c4cccc(Cl)c4)CCCN3)cs2)[C@H](O)[C@@H]1O (stereo partly shown) | > 8.00 |
| NS(=O)(=O)OC[C@H]1C[C@@H](Nc2ncncc2C(=O)c2cc(C(O)c3cccc(Cl)n3)c(Cl)s2)C[C@@H]1O (single isomer, unassigned) | > 8.00 |
| NC(c1cccc(Br)n1)c1cc(C(=O)c2cncnc2N[C@@H]2C[C@H](COS(N)(=O)=O)[C@@H](O)[C@H]2O)sc1Cl (single isomer, unassigned) | > 8.00 |

pIC50: −log10 of the molar value. Structures were worked out from names or drawings and are uncertain.
